These are yes or no findings as the source states them, for the method shown. Some binding calls cover weakened binding; strength is not graded here.
T1: MORT-1 fragment, residues 1-117 (human)
T1 sequence: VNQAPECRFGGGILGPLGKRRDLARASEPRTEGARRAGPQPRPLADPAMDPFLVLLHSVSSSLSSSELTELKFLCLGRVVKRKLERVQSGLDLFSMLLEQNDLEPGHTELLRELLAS

T2: MORT-1 (full) (human)
T2 sequence: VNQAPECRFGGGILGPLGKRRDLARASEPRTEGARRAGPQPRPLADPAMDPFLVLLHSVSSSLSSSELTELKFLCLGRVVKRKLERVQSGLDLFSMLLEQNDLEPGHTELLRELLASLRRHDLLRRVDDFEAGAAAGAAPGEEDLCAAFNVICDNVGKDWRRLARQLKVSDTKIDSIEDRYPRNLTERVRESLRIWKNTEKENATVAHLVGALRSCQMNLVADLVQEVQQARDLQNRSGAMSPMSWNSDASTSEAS

B1: MORT-1 (full) (other)
chain: T2 sequence
notes: The Gal4 part is not written as a piece; Met 49 is a possible translation start; also called HF1; HF-1
B2: MORT-1 fragment, residues 1-117 (protein)
chain: T1 sequence

Columns and labels:
[1] = molecular target: T1, MORT-1 fragment, residues 1-117 (human); assay: yeast two-hybrid beta-galactosidase filter assay (SFY526); row = Gal4 DNA-binding-domain hybrid, column = activation-domain hybrid; ++ = strong color within 30 min
MORT-1 (full) (human) [2] = molecular target: T2, MORT-1 (full) (human); assay: yeast two-hybrid test
MORT-1 (full) (human) [3] = molecular target: T2, MORT-1 (full) (human); assay: yeast two-hybrid beta-galactosidase filter assay (SFY526); row = Gal4 DNA-binding-domain hybrid, column = activation-domain hybrid; + = strong color within 90 min

Row | Binder | binding [1] | binding (MORT-1 (full) (human) [2]) | binding (MORT-1 (full) (human) [3])
1 | B1 | binds | – | –
2 | B2 | – | binds | binds
